Source: PubChem BioAssay AID1259327 (Drosophila RNAi Screening Center, 2017)

Screen: 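Baseline ATP after transmembrane-protein gene knock-down with water vehicle only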
Cell system: Drosophila S2R+ cells
Reagents: long dsRNA against Drosophila genes
Time to read-out: 5 days (water added on day 4, read one day later)
Challenge: water added as vehicle, no metal, one day before read-out
Measured: 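Luciferase ATP signal per well, normalised to plate mean, duplicate average converted to z-score across plates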
Reading the numbers: ATP z-score: higher = more total ATP than typical wells; ATP luminescence: higher = more total ATP
Rule for the call: 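Called active when the ATP z-score exceeds 1.5 or falls below -1.5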
Calls: active = hit: ATP up or down; inactive = no clear ATP change
The deposit covers about 3,100 reagents; this is a random part of them. Of all reagents, 378 (12%) got an active call. 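Hits include both directions; z-score sign shows ATP rise or fall; raw luminescence values are not plate-normalised.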 Names joined by + are all predicted targets of the reagent. Not stated in the record: the amount of reagent.

| predicted target | DRSC id | ATP z-score, duplicate mean | ATP luminescence, replicate 1 (RLU) | ATP luminescence, replicate 2 (RLU) | call |
| --- | --- | --- | --- | --- | --- |
| CG15531 (GeneID 43592) | DRSC15068 | 2.27 | 7.65e5 | 7.12e5 | active |
| babo (GeneID 35900) | DRSC07581 | -0.788 | 6.37e5 | 4.59e5 | inactive |
| babo (GeneID 35900) | DRSC36676 | -0.67 | 4.59e5 | 5.88e5 | inactive |
| babo (GeneID 35900) | DRSC36677 | 0.934 | 7.63e5 | 5.53e5 | inactive |
| CG1688 (GeneID 36005) | DRSC23207 | -0.599 | 4.91e5 | 5.67e5 | inactive |
| spdo (GeneID 318559) | DRSC13988 | -0.579 | 8.30e5 | 8.10e5 | inactive |
| spdo (GeneID 318559) | DRSC24230 | 0.496 | 9.13e5 | 8.54e5 | inactive |
| PGAP1 (GeneID 31487) | DRSC18286 | 0.0995 | 7.24e5 | 7.08e5 | inactive |
| PGAP1 (GeneID 31487) | DRSC28989 | 1.51 | 1.05e6 | 9.65e5 | active |
| CG5250 (GeneID 42308) | DRSC15752 | -0.846 | 2.52e5 | 6.94e5 | inactive |
| CG5250 (GeneID 42308) | DRSC39851 | -1.68 | 3.67e5 | 3.56e5 | active |
| xit (GeneID 31623) | DRSC18364 | 0.221 | 7.44e5 | 7.14e5 | inactive |
| xit (GeneID 31623) | DRSC39724 | 0.106 | 4.82e5 | 4.62e5 | inactive |
| Gr9a (GeneID 318158) | DRSC22506 | 0.491 | 9.56e5 | 8.66e5 | inactive |
| Gr9a (GeneID 318158) | DRSC39581 | -0.212 | 4.28e5 | 4.75e5 | inactive |
| Nach (GeneID 36864) | DRSC07478 | -1.5 | 5.14e5 | 4.53e5 | active |
| Nach (GeneID 36864) | DRSC39863 | -2.27 | 4.01e5 | 3.78e5 | active |
| Pex3 (GeneID 39652) | DRSC10731 | -1.88 | 4.55e5 | 6.08e5 | active |
| Grd (GeneID 39984) | DRSC11178 | -0.897 | 7.72e5 | 7.84e5 | inactive |
| Grd (GeneID 39984) | DRSC28513 | 0.147 | 9.01e5 | 7.86e5 | inactive |
| Orct2 (GeneID 42890) | DRSC14613 | 0.85 | 8.23e5 | 7.64e5 | inactive |
| Orct2 (GeneID 42890) | DRSC24714 | 1.65 | 7.49e5 | 8.37e5 | active |
| Mrp4 (GeneID 41387) | DRSC14931 | -0.0175 | 2.93e5 | 7.74e5 | inactive |
| Mrp4 (GeneID 41387) | DRSC28151 | 0.857 | 8.90e5 | 1.05e6 | inactive |
| nAChRbeta2 (GeneID 42920) | DRSC17010 | -0.0463 | 7.19e5 | 6.83e5 | inactive |
| mri (GeneID 38028) | DRSC08259 | -0.617 | 9.03e5 | 4.20e5 | inactive |
| mri (GeneID 38028) | DRSC27787 | 0.0631 | 8.53e5 | 8.38e5 | inactive |
| CG12730 (GeneID 31466) | DRSC17885 | -0.736 | 7.41e5 | 6.18e5 | inactive |
| CG12730 (GeneID 31466) | DRSC39454 | 0.214 | 5.82e5 | 3.58e5 | inactive |
| promL (GeneID 38372) | DRSC08733 | -0.0336 | 7.53e5 | 7.01e5 | inactive |

The list goes on (4 carried over from the part before).
| predicted target | DRSC id | ATP z-score, duplicate mean | ATP luminescence, replicate 1 (RLU) | ATP luminescence, replicate 2 (RLU) | call |
| --- | --- | --- | --- | --- | --- |
| mri (GeneID 38028) | DRSC27787 | 0.0631 | 8.53e5 | 8.38e5 | inactive |
| CG12730 (GeneID 31466) | DRSC17885 | -0.736 | 7.41e5 | 6.18e5 | inactive |
| CG12730 (GeneID 31466) | DRSC39454 | 0.214 | 5.82e5 | 3.58e5 | inactive |
| promL (GeneID 38372) | DRSC08733 | -0.0336 | 7.53e5 | 7.01e5 | inactive |
| CG30265 (GeneID 37622) | DRSC21592 | -2.25 | 3.89e5 | 3.88e5 | active |
| CG14767 (GeneID 50250) | DRSC06500 | 0.487 | 8.10e5 | 7.55e5 | inactive |
| CG14767 (GeneID 50250) | DRSC28418 | -0.662 | 8.25e5 | 6.68e5 | inactive |
| ppk8 (GeneID 318213) | DRSC17269 | 0.0697 | 9.57e5 | 8.56e5 | inactive |
| ppk8 (GeneID 318213) | DRSC39772 | -1.95 | 4.26e5 | 2.53e5 | active |
| CR12628 + Mgstl | DRSC03702 | -2.83 | 4.29e5 | 5.84e5 | active |
| CR12628 + Mgstl | DRSC20568 | -0.59 | 6.92e5 | 6.64e5 | inactive |
| ItgaPS4 (GeneID 36693) | DRSC06630 | -0.632 | 5.13e5 | 6.12e5 | inactive |
| CG8785 (GeneID 36391) | DRSC07266 | 0.0445 | 7.15e5 | 7.57e5 | inactive |
| cac (GeneID 32158) | DRSC20354 | 0.437 | 7.50e5 | 7.52e5 | inactive |
| cac (GeneID 32158) | DRSC39146 | -1.12 | 5.39e5 | 4.29e5 | inactive |
| Rh50 (GeneID 38589) | DRSC08692 | -0.0286 | 6.82e5 | 7.76e5 | inactive |
| CG34011 (GeneID 3885619) | DRSC00888 | 0.552 | 8.27e5 | 7.76e5 | inactive |
| CG34011 (GeneID 3885619) | DRSC39571 | 0.888 | 5.23e5 | 5.28e5 | inactive |
| CG4324 (GeneID 37830) | DRSC04462 | -0.978 | 6.67e5 | 5.78e5 | inactive |
| CG4324 (GeneID 37830) | DRSC27530 | -0.524 | 8.60e5 | 1.01e6 | inactive |
| CG6845 (GeneID 38019) | DRSC08576 | -0.391 | 7.18e5 | 6.59e5 | inactive |
| CG6845 (GeneID 38019) | DRSC26319 | 0.0406 | 7.61e5 | 9.51e5 | inactive |
| VhaAC45 (GeneID 35944) | DRSC07058 | 0.69 | 7.99e5 | 8.11e5 | inactive |
| VhaAC45 (GeneID 35944) | DRSC39906 | 1.68 | 7.20e5 | 7.36e5 | active |
| Shal (GeneID 40129) | DRSC09625 | -0.42 | 7.14e5 | 6.70e5 | inactive |
| Shal (GeneID 40129) | DRSC11283 | -0.175 | 8.82e5 | 8.64e5 | inactive |
| CG13920 (GeneID 38203) | DRSC08389 | -0.883 | 6.32e5 | 6.41e5 | inactive |
| CG13920 (GeneID 38203) | DRSC39516 | -0.768 | 4.29e5 | 3.77e5 | inactive |
| CG11155 (GeneID 43822) | DRSC17184 | 0.29 | 9.61e5 | 9.07e5 | inactive |
| CG11155 (GeneID 43822) | DRSC17205 | -0.146 | 7.20e5 | 6.62e5 | inactive |
| CG11155 (GeneID 43822) | DRSC29324 | 0.113 | 8.75e5 | 8.01e5 | inactive |
| CG17600 (GeneID 33141) | DRSC20640 | 0.982 | 7.82e5 | 9.21e5 | inactive |
| CG17600 (GeneID 33141) | DRSC22753 | 0.457 | 5.99e5 | 6.38e5 | inactive |
| CG17600 (GeneID 33141) | DRSC27203 | -0.886 | 9.49e5 | 1.06e6 | inactive |
| st (GeneID 39836) | DRSC11399 | -0.476 | 6.92e5 | 6.68e5 | inactive |
| st (GeneID 39836) | DRSC28257 | 0.703 | 8.69e5 | 9.42e5 | inactive |
| Gr64f (GeneID 117477) | DRSC08447 | -0.0418 | 9.07e5 | 8.74e5 | inactive |
| Gr64f (GeneID 117477) | DRSC25964 | -0.682 | 7.96e5 | 7.35e5 | inactive |
| drd (GeneID 318102) | DRSC19343 | 0.309 | 6.18e5 | 7.53e5 | inactive |
| drd (GeneID 318102) | DRSC26473 | -1.84 | 8.44e5 | 1.22e6 | active |
| CG31668 (GeneID 33395) | DRSC22584 | 1.47 | 6.79e5 | 7.29e5 | inactive |
| CG31668 (GeneID 33395) | DRSC39502 | 0.986 | 4.66e5 | 5.67e5 | inactive |
